Patent US11779628B2, “Use of cell-permeable peptide inhibitors of the JNK signal transduction pathway for the treatment of various diseases” (Xigen Inflammation Ltd., priority 2014, dated 2023)
Like-named read-outs stand apart in the source and are kept apart here. Part of at least one peptide drawing is inferred or uncertain, most often the ends.

Key:
[1] = system: Wistar rats, PAN-induced nephropathy; type: in vivo, rat
Excerpt: The aim of this study was to evaluate the effects of XG-102 on chronic puromycine aminonucleoside-induced nephropathy in rats during 56 days. Puromycin aminonucleoside (PAN) is a podocyte toxin inducing a loss and fusion of podocytes foot processes. PAN-induced nephropathy is a well-described model of human idiopathic […] syndrome and focal segmental glomerulosclerosis ([…], 2008). The glomerular morphologic changes seen in rats with PAN nephrosis closely resemble those in human minimal change disease (MCD) and focal segmental glomerulosclerosis (FSGS). Intraperitoneal administration of PAN in rats results in a rapid development of […] syndrome, characterized by proteinuria, hypoalbuminemia and hypercholesterolemia (acute phase). This is a well-established animal model of human MCD. The pathological lesions of focal segmental glomerulosclerosis have been observed in chronic PAN nephrosis induced by repeated intraperitoneal PAN injections ([…]. […] Effects of edaravone against glomerular injury in rats with chronic puromycin aminonucleoside nephrosis. J Saitama medical university, 37(1)). In accordance with the mechanism of injury, PAN causes direct DNA damage via the production of reactive oxygen species (ROS) and tissue damages, including glomerulosclerosis and interstitial fibrosis (Hewitson T D, 2012) in the chronic phase. […] To induce nephropathy puromycin aminonucleoside (PAN) was intraperitoneally administered at the dose of 130 mg/kg (5 ml/kg) at day 0 and at the dose of 60 mg/kg (5 ml/kg) at day 14 ([…]. […] Effects of edaravone against glomerular injury in rats with chronic puromycin aminonucleoside nephrosis. J Saitama medical university, 37(1)). Control rats (Group 1) received an equal amount of saline i.p at day 0 and at day 14. […] The highest concentration then represented the stock solution for the lower concentrations. Each stock solution has been filter (0.2 μm) sterilized. The lower concentration solutions to be administered were prepared by diluting the filtered stock solution in saline (0.9% NaCl) depending on the volume for i.v. injection. Briefly, on day 0 and day 14 PAN or its vehicle (saline) have been injected for induction of nephropathy. At day 0 and at day 14, PAN has been administered first, followed by XG-102 administration. […] In particular, for blood and kidney sampling animals have been anesthetized by injection of pentobarbital (60 mg/kg; Ceva Sante Animale; Libourne, France). […] Plasma has been stored at -20° C. until use for biomarkers assay, e.g. creatinine and urea assays. […] Kidneys have been removed, cleaned from all connective tissue and capsule and weighted on an electronic microbalance (Mettler, Toledo). […] The slides were stained by hematoxylin/eosin (HE), PAS-methenamine silver and Sirius Red for histological evaluation of morphological alterations, glomerulosclerosis and interstitial fibrosis quantification, respectively. All the slides were digitalized at ×20 using Nanozoomer 2.0 HT from Hamamatsu (Japan). Histological preparation and imaging has been performed by […] (Montpellier, France). […] Results are expressed by semi-quantitative scoring following to expert histopathologist evaluation. For the histological examination of glomerulosclerosis glomerular changes have been evaluated using a semi quantitative scoring system as described by […]. […] Effects of edaravone against glomerular injury in rats with chronic puromycin aminonucleoside nephrosis. […] All data have been calculated as mean values±standard error of the mean (s.e.m.). Statistical analysis has been performed using GraphPad Prism, version 4 (GraphPad Software Inc., LaJolla, USA). The comparison of all the groups using two-way ANOVA-followed by Bonferroni's post-test for body weight results. Comparison between group 1 (Saline/saline) and group 2 (PAN/saline) was performed using unpaired Student t-test. The effects of vehicle and XG-102 were compared using one way ANOVA followed by Newman-Keuls test. […]

[2] = system: murine T cells; test: PMA & ionomycin-induced cytokine production in primary cells; type: cell-based
[3] = system: Sprague-Dawley rats, bilateral IR; test: Kidney bilateral ischemia reperfusion, 2 mg/kg after reperfusion; type: in vivo, rat; details: Group 3 (IR/XG-102)
[4] = system: Brown Norway rats, laser-induced ChNV; test: Rat argon laser-induced choroidal neovascularization, intravitreous
[5] = system: patients after ocular surgery; test: Clinical Phase II, post-surgery intraocular inflammation: efficacy; type: in vivo, human; details: for Anterior chamber cell grade, estimated difference: PP analysis set
[6] = system: Hep G2 human hepatocarcinoma tumor; type: in vivo, mice; details: XG-102 1 mg/kg IV, D10 & D41, Q4Dx4; versus vehicle
[7] = system: C57BL/6 mice, bleomycin induced inflammation; test: Bleomycin induced acute lung inflammation (COPD model); type: in vivo
[8] = system: primary mouse cortical neuron cultures; test: JNK activation and apoptosis in cortical neurons exposed to Aβ42; type: cell-based; details: 10 μM, Aβ42 2 μM 5 hours
[9] = system: rat islets; test: Rat islets submitted to hypoxia for 4 h; type: cell-based; details: 100 μM

CC(C)C[C@@H](NC(=O)[C@@H](Cc1ccccc1)NC(=O)[C@H]1CCCN1C(=O)[C@@H](CCC(N)=O)NC(=O)[C@H](NC(=O)[C@H]1CCCN1C(=O)[C@@H](CCCNC(=N)N)NC(=O)[C@@H](CO)NC(=O)[C@@H](CCC(N)=O)NC(=O)[C@H](N)CC(=O)O)C(C)C)C(=O)N[C@H](CC(N)=O)C(=O)N[C@H](CC(C)C)C(=O)N[C@@H](C(=O)N[C@@H](C(=O)N1CCC[C@@H]1C(=O)N[C@H](CCCNC(=N)N)C(=O)N[C@H](CCCCN)C(=O)N1CCC[C@@H]1C(=O)N[C@H](CCCNC(=N)N)C(=O)N1CCC[C@@H]1C(=O)N1CCC[C@@H]1C(=O)N[C@H](CCCNC(=N)N)C(=O)N[C@H](CCCNC(=N)N)C(=O)N[C@H](CCCNC(=N)N)C(=O)N[C@H](CCC(N)=O)C(=O)N[C@H](CCCNC(=N)N)C(=O)N[C@H](CCCNC(=N)N)C(=O)N[C@H](CCCCN)C(=O)N[C@H](CCCCN)C(=O)N[C@H](CCCNC(=N)N)C(=O)NCC(=O)O)[C@H](C)O)[C@H](C)O [XG-102]
PAN-induced glomerulosclerosis ([1]; 1 mg/kg, 7 iv injections): had no effect on this pathological feature
Plasma LDL ([1]; 4 mg/kg groups): a decrease in Plasma LDL was observed in particular for the 4 mg/kg groups (Group 5 and 6), although it was not significant
PAN-induced glomerulosclerosis ([1]; 4 mg/kg, 4 iv injections starting from day 21): a strong effect of XG-102 in reducing glomerulosclerosis induced by PAN
glomerular damage incidence (percentage of injured glomeruli) ([1]; 7 iv injections at 2 and 4 mg/kg): significantly decreased glomerular damage incidence (percentage of injured glomeruli)
PAN-induced glomerulosclerosis ([1]; 7 iv injections, 1, 2, 4 mg/kg): significantly reduced PAN-induced glomerulosclerosis in a dose dependent manner
infiltrating macrophages (ED-1, Anti-CD68) ([1]; rat, in vivo): also tends to decrease infiltrating macrophages
PMA & ionomycin-induced TNFa and IFNg production [2]: also inhibits cytokine release in primary lymphoid and myeloid cells
total tubular score [3]: 6.50±0.80
% of reduction vs Vehicle ([4]; 300 μg/ml, Day 14): 17%
Incidence (% spots with score x), Score 0 ([4]; 300 μg/ml, Day 14): 7%
Incidence (% spots with score x), Score 1 ([4]; 300 μg/ml, Day 14): 9%
Incidence (% spots with score x), Score 2 ([4]; 300 μg/ml, Day 14): 18%
Incidence (% spots with score x), Score 3 ([4]; 300 μg/ml, Day 14): 66%
% of reduction vs Vehicle ([4]; 300 μg/ml, Day 21): −9%
Incidence (% spots with score x), Score 0 ([4]; 300 μg/ml, Day 21): 5%
Incidence (% spots with score x), Score 1 ([4]; 300 μg/ml, Day 21): 9%
Incidence (% spots with score x), Score 2 ([4]; 300 μg/ml, Day 21): 32%
Incidence (% spots with score x), Score 3 ([4]; 300 μg/ml, Day 21): 55%
% of reduction vs Vehicle ([4]; 3000 μg/ml, Day 14): 41%
Incidence (% spots with score x), Score 0 ([4]; 3000 μg/ml, Day 14): 0%
Incidence (% spots with score x), Score 1 ([4]; 3000 μg/ml, Day 14): 44%
Incidence (% spots with score x), Score 2 ([4]; 3000 μg/ml, Day 14): 44%
Incidence (% spots with score x), Score 3 ([4]; 3000 μg/ml, Day 14): 12%
% of reduction vs Vehicle ([4]; 3000 μg/ml, Day 21): −5%
Incidence (% spots with score x), Score 0 ([4]; 3000 μg/ml, Day 21): 0%
Incidence (% spots with score x), Score 1 ([4]; 3000 μg/ml, Day 21): 14%
Incidence (% spots with score x), Score 2 ([4]; 3000 μg/ml, Day 21): 47%
Incidence (% spots with score x), Score 3 ([4]; 3000 μg/ml, Day 21): 40%
anterior chamber cell grade at day 7 and day 14 vs dexamethasone ([5]; 90 μg and 900 μg, FAS): no statistically significant differences in anterior chamber cell grade
difference in anterior chamber cell grade at day 28 vs dexamethasone ([5]; 90 μg, FAS): 0.053 anterior cell grade
odds of having cleared inflammation vs usual care group ([5]; 90 μg, FAS, day 7): 0.52 (95% CI 0.15-1.83)
odds of having cleared inflammation vs usual care group ([5]; 90 μg, FAS, day 14): 0.85 (95% CI 0.30-2.40)
odds of having cleared inflammation vs usual care group ([5]; 90 μg, FAS, day 28): 1.24 (95% CI 0.54-2.87)
difference in anterior chamber cell grade at day 28 vs dexamethasone ([5]; 90 μg, PP): 0.086 anterior cell grade
odds of having cleared inflammation vs usual care group ([5]; 90 μg, PP, day 7): 0.56 (95% CI 0.16-1.97)
odds of having cleared inflammation vs usual care group ([5]; 90 μg, PP, day 14): 0.97 (95% CI 0.34-2.77)
odds of having cleared inflammation vs usual care group ([5]; 90 μg, PP, day 28): 1.45 (95% CI 0.58-3.61)
difference in anterior chamber cell grade at day 28 vs dexamethasone ([5]; 900 μg, FAS): −0.032 cell grade
odds of having cleared inflammation vs usual care group ([5]; 900 μg, FAS, day 7): 0.76 (95% CI 0.25-2.28)
odds of having cleared inflammation vs usual care group ([5]; 900 μg, FAS, day 14): 1.25 (95% CI 0.47-3.32)
odds of having cleared inflammation vs usual care group ([5]; 900 μg, FAS, day 28): 1.13 (95% CI 0.49-2.60)
difference in anterior chamber cell grade at day 28 vs dexamethasone ([5]; 900 μg, PP): −0.054 anterior cell grade
odds of having cleared inflammation vs usual care group ([5]; 900 μg, PP, day 7): 0.84 (95% CI 0.28-2.46)
odds of having cleared inflammation vs usual care group ([5]; 900 μg, PP, day 14): 1.12 (95% CI 0.41-3.05)
odds of having cleared inflammation vs usual care group ([5]; 900 μg, PP, day 28): 1.26 (95% CI 0.52-3.04)
Anterior chamber cell grade, estimated difference ([5]; XG-102 90 μg versus Dexamethasone, Visit 3 (14 days)): 0.009
Anterior chamber cell grade, estimated difference ([5]; XG-102 90 μg versus Dexamethasone, Visit 4 (28 days)): 0.086
Anterior chamber cell grade, estimated difference ([5]; XG-102 900 μg versus Dexamethasone (primary comparison), Visit 4 (28 days)): −0.054
Anterior chamber cell grade, estimated difference ([5]; XG-102 900 μg versus Dexamethasone, Visit 2 (7 days)): 0.056
Anterior chamber cell grade, estimated difference ([5]; XG-102 900 μg versus Dexamethasone, Visit 3 (14 days)): −0.017
Anterior chamber cell grade, estimated difference ([5]; XG-102 900 μg versus XG-102 90 μg, Visit 2 (7 days)): −0.086
Anterior chamber cell grade, estimated difference ([5]; XG-102 900 μg versus XG-102 90 μg, Visit 3 (14 days)): −0.026
Anterior chamber cell grade, estimated difference ([5]; XG-102 900 μg versus XG-102 90 μg, Visit 4 (28 days)): −0.140
T/C (%) of survival time [6]: 120%
cell recruitment in bronchoalveolar lavage space ([7]; 0.001 mg/kg s.c. single dose): has no effect on neutrophil recruitment or other cell types into the bronchoalveolar space
histology, inflammatory cell accumulation in the peribronchial space ([7]; 0.1 mg/kg): a decrease of the inflammatory cell accumulation in the peribronchial space
cell recruitment in bronchoalveolar lavage space ([7]; 0.1 mg/kg s.c. single dose): reduces significantly the neutrophil recruitment and the number of total cells recruited during the inflammatory stage
MPO levels in the lung ([7]; s.c. single dose): had thus no effect on the MPO levels in the lung
TNF level in BALF ([7]; s.c. single dose): a trend to reduction of the TNF level in BALF
decrease of apoptosis (cleaved PARP) [8]: 37%
phosphorylation of JNK and JUN (western blot) ([9]; hypoxia 4 h): did not inhibit phosphorylation of JNK and JUN induced by hypoxia
islet viability (apoptosis and necrosis) ([9]; normoxia and hypoxia): apoptosis and necrosis were decreased either in normoxia and hypoxia conditions
